Results are given in words; binding and its absence hold for the method and conditions named. Binding seen in cells or lysates may run through a third protein. Some entries that bind do so weakly or less than the wild type.
Key:
[1] = target: RIPK3 (human (endogenous in HUVEC)) (UniProt Q9Y572); assay: co-IP; endogenous proteins of HUVEC, normoxia or hypoxia (1% O2, 12 h); RIPA lysate; antibody (anti-RIPK3, anti-FADD or anti-SUMO2/3) on protein A+G magnetic beads, lysate overnight at 4 °C, three washes with PBST, immunoblot; anti-RIPK3 IP also from cells transfected with FADD-OE WT or MUT plasmids (Fig. 5B)
[2] = target: FADD (Fas-associated via death domain) (human (endogenous in HUVEC)) (UniProt Q13158); assay: as above
[3] = target: wild-type FADD (FADD-OE WT) (UniProt Q13158); assay: co-IP; HUVEC transfected with FADD-OE (WT) or FADD-OE (MUT) plasmid, normoxia or hypoxia (12 h); RIPA lysate; anti-FADD antibody on protein A+G magnetic beads, immunoblot with anti-RIPK1 and anti-RIPK3

The chains behind the UniProt entries cited, without tags or fusion partners.
UniProt Q9Y572: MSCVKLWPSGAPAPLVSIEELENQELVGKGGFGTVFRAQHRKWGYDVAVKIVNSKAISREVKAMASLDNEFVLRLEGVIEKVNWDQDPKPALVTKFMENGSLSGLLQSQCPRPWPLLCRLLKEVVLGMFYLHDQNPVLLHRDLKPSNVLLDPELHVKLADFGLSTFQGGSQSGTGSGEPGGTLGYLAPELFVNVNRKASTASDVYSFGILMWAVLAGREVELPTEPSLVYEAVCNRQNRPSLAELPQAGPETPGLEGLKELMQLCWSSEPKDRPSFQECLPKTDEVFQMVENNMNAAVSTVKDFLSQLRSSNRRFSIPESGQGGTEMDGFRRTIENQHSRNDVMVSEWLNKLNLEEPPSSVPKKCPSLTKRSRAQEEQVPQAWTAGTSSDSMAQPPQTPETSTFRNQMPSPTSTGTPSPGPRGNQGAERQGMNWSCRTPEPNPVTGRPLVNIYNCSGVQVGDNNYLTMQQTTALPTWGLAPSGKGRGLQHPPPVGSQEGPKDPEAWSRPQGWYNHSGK
UniProt Q13158: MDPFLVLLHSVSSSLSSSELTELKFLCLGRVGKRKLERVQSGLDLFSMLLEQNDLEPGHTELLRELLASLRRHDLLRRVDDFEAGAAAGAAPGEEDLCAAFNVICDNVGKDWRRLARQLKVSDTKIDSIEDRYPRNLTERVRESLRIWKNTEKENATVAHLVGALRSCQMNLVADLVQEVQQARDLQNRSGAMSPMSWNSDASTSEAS
UniProt Q13546: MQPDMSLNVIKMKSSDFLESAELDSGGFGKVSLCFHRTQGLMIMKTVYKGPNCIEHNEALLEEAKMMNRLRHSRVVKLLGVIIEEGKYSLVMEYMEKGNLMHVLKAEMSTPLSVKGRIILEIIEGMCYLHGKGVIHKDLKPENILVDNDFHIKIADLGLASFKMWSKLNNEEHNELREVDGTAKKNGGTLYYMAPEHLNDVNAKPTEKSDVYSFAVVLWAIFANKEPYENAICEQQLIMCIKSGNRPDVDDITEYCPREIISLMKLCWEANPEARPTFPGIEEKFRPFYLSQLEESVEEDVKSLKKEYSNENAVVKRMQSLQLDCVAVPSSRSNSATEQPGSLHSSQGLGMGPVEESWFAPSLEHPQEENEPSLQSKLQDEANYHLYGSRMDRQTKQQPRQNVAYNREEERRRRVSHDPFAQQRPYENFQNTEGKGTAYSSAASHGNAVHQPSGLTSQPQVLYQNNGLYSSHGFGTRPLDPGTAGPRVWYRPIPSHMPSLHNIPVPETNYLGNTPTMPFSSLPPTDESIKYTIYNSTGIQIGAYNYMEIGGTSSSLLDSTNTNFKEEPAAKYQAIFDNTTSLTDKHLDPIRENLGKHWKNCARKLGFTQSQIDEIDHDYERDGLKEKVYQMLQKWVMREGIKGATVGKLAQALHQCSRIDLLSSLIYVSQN

In the case of RIPK1 (from UniProt Q13546 1-671), the binding [1] is reported as “binds”.
RIPK3 (from UniProt Q9Y572 1-518) was tested, and the binding [2] was “binds” and the binding [3] was “binds”.

Reference: article PMC11845712
